According to the supplement of paper PMC10849652:
This is one part of the list.

Amino acid sequences for entries named in this document (tags omitted). A change or cut given only in a name is not applied to a line headed by its entry.
UniProt O43464: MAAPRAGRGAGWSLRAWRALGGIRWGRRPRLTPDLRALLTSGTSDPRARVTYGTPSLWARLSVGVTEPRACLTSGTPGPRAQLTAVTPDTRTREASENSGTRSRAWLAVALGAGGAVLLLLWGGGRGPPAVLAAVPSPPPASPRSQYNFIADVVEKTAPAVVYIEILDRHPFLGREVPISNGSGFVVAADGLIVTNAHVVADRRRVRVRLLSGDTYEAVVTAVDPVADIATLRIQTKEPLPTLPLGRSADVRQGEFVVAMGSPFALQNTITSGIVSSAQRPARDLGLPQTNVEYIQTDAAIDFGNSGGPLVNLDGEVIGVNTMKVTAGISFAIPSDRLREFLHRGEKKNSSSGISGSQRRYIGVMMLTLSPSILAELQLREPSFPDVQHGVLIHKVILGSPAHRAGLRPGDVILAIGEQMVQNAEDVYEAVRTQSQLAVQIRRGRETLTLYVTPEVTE
UniProt Q16891: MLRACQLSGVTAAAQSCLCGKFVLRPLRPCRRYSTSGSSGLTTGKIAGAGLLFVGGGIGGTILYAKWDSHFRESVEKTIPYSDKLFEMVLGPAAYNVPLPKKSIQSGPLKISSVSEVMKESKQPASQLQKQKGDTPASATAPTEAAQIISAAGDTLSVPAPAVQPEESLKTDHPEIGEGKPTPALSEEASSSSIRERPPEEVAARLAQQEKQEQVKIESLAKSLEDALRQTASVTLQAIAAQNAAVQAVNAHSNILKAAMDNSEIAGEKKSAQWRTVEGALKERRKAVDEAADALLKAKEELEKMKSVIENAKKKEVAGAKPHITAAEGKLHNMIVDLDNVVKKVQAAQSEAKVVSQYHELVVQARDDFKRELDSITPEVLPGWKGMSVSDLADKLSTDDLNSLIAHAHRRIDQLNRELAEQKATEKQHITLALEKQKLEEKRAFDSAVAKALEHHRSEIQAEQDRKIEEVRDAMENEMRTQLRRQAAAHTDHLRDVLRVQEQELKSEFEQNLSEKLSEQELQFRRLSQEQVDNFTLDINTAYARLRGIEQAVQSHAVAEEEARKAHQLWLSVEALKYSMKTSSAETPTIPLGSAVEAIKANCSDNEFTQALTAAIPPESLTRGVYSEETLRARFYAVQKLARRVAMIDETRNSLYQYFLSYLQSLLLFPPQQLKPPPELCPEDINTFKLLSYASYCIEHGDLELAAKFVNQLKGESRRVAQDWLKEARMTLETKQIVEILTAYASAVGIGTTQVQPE
UniProt Q9NV31: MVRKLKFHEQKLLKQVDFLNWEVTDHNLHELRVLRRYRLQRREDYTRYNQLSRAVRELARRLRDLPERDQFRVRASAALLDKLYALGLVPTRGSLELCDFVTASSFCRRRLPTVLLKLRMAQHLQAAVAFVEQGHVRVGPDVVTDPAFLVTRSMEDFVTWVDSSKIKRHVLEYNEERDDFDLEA
UniProt Q9H6K1: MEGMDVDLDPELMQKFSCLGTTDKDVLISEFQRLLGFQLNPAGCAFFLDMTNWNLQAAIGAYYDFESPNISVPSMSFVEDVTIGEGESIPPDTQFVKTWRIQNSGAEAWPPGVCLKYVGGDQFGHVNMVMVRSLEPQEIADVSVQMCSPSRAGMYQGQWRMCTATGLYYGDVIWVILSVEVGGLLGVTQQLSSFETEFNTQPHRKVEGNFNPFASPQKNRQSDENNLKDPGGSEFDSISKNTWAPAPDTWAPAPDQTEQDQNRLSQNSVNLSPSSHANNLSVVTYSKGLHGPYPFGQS
UniProt Q9P2D0: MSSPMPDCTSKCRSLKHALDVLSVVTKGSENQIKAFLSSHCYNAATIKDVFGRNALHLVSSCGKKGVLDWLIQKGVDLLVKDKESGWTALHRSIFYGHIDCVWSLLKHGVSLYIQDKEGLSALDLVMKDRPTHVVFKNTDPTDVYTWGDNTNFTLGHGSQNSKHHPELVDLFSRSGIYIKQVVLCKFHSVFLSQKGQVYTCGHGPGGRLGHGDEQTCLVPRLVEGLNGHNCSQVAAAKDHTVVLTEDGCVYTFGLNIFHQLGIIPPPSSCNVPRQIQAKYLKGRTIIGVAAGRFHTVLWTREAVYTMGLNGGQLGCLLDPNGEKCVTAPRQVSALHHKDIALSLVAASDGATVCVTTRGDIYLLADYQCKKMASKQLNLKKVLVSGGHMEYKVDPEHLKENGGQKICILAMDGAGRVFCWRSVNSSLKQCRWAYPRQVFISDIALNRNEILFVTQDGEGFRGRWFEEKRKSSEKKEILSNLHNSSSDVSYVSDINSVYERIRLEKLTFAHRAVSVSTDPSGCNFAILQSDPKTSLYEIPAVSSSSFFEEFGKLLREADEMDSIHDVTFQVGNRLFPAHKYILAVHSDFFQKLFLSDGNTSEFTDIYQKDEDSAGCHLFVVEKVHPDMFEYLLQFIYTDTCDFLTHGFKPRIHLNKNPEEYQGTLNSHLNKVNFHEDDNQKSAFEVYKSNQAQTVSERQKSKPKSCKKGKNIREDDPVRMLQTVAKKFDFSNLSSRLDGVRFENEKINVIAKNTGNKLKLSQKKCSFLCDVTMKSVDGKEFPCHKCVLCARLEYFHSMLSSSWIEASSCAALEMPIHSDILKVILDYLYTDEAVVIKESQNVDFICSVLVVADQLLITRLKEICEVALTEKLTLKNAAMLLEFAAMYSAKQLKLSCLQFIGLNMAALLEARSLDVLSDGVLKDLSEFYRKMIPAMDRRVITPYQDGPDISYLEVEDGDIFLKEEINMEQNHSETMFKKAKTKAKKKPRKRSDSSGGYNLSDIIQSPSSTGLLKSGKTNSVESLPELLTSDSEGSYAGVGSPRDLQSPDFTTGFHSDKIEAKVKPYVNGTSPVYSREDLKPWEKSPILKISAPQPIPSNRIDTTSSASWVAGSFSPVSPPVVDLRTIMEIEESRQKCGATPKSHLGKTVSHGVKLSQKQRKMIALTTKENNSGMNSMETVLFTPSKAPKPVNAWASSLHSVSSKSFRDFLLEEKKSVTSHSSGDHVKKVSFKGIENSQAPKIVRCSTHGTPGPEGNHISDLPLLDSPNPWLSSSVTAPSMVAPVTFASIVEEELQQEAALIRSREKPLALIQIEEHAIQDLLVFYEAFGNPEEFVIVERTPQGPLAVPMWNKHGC
UniProt Q8N201, whole entry, looked up: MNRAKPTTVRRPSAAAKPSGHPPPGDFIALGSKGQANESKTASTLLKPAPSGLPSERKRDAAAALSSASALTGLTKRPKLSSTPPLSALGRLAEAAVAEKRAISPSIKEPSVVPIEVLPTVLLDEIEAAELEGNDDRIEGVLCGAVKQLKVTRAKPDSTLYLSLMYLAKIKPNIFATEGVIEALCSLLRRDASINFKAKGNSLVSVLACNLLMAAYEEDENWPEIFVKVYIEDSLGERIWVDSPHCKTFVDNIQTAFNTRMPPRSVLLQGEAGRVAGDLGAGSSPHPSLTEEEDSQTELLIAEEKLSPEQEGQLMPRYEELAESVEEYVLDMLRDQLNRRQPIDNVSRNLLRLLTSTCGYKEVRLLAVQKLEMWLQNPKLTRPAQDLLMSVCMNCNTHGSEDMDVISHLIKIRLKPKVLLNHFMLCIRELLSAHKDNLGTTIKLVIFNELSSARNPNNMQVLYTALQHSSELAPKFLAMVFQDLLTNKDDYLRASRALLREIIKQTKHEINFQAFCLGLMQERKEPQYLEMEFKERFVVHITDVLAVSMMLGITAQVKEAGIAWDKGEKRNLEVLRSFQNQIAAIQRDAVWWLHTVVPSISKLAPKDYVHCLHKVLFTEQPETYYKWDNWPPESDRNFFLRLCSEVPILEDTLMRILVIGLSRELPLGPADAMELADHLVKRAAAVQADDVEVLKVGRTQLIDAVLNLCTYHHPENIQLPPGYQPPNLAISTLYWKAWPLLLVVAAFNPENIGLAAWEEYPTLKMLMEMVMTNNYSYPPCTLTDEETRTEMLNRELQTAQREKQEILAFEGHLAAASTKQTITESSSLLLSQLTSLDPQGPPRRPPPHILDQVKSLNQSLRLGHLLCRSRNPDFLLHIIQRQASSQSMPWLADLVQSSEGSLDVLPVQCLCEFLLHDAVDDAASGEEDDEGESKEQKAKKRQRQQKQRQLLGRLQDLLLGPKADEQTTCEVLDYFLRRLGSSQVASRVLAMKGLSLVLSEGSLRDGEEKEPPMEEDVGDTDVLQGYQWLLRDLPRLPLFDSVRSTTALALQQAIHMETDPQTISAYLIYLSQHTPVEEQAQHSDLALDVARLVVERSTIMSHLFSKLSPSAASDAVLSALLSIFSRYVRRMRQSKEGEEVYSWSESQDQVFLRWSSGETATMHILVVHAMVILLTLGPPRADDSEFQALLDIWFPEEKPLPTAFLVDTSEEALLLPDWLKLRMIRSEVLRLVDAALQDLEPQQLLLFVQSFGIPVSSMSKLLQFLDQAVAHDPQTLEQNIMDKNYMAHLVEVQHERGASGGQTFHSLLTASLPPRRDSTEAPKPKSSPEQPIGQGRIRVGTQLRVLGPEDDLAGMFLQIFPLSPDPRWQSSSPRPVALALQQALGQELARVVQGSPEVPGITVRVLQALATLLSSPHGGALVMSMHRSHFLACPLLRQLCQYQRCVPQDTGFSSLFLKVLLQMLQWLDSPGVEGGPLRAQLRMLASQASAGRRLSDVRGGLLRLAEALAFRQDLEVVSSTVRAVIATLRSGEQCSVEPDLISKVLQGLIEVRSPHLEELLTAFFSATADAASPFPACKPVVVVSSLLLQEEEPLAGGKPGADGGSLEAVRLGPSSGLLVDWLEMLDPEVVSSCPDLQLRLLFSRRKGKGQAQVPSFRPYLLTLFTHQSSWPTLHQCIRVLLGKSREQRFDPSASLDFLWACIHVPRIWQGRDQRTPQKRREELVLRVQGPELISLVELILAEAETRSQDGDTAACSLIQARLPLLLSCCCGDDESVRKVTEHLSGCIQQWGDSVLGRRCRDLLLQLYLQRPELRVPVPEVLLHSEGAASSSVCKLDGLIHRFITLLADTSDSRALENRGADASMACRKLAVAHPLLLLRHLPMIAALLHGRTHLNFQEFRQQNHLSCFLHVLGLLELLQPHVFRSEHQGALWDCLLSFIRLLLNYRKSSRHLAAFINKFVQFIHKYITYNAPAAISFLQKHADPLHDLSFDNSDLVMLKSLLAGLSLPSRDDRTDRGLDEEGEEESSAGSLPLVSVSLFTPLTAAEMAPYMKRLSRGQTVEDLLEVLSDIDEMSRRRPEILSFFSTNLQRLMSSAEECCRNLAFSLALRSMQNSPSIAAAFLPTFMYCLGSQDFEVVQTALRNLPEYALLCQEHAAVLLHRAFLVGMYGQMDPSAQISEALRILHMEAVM
UniProt P38646: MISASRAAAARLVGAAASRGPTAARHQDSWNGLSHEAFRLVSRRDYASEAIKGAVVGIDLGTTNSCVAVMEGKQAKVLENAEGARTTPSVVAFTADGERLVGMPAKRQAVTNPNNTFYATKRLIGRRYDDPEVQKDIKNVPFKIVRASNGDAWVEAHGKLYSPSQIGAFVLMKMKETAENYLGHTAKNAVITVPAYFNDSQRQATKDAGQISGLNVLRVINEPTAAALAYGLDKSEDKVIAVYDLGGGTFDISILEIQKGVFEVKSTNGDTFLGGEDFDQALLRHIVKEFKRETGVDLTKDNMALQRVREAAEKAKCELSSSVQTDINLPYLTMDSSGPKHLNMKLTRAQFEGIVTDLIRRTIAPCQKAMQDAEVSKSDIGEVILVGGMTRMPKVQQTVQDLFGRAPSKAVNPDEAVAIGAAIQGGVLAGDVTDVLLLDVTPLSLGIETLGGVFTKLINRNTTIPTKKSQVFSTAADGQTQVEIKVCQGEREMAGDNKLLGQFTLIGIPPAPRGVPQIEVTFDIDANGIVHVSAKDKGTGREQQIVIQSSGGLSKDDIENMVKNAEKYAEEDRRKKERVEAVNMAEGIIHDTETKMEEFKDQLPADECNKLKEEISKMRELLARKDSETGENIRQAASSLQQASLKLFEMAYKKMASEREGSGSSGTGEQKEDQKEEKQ
UniProt P10809, whole entry, looked up: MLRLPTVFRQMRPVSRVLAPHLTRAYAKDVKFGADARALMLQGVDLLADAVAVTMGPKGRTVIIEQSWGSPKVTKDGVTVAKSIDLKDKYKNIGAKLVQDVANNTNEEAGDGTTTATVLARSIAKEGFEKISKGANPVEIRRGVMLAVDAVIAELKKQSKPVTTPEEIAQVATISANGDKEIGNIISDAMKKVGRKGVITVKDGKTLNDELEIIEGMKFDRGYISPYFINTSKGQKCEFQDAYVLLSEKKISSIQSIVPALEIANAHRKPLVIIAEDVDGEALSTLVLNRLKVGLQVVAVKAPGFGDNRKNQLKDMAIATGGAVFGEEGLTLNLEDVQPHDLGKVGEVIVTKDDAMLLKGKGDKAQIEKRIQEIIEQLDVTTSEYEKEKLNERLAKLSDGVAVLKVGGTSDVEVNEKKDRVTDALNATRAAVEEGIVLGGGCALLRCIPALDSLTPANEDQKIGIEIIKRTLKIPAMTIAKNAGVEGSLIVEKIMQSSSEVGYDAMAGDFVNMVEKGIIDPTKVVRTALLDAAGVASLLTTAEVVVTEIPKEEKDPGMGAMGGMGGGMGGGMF

Legend:
Assay in all cases: log2 fold change, soluble protein after heating vs DMSO (PISA); higher = thermal stabilisation; K562 lysate, 10 uM; active = over 0.2 and 3.5 SD of the protein, either way, in both replicates (recomputed)
ibrutinib = compound: C=CC(=O)N1CCC[C@@H](n2nc(-c3ccc(Oc4ccccc4)cc3)c3c(N)ncnc32)C1 [ibrutinib]
How it was run: (§1)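 Log-two fold change in thermal stability relative to solvent controls is reported from duplicates. For each sample, crude K562 extract from dounce-homogenised pellets in PBS pH 7.4 with 1 mM MgCl2, at 1 mg/mL protein, was treated with 10 μM compound for 30 min. Aliquots heated for 3 min across 48°C-58°C were pooled, brought to 0.5% NP-40 at 4°C and cleared at 21,000xg for 90 min. The supernatant was quantified by TMTpro 16plex LC-MS/MS with channel sums equalised.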

[1] = compound: CC(=O)c1cnc2ccc(-c3cc(Cl)c(O)c(Cl)c3)nc2c1N[C@H]1CC[C@H](CN(C)C)CC1
How it was run: as §1

ralimetinib = compound: CC(C)(C)Cn1c(N)nc2ccc(-c3[nH]c(C(C)(C)C)nc3-c3ccc(F)cc3)nc21 [ralimetinib]
How it was run: as §1

[2] = compound: CC(C)(O)CC(=O)NCCn1ccc2ncnc(Nc3ccc(Oc4cccc(C(F)(F)F)c4)c(Cl)c3)c21
How it was run: as §1

[3] = compound: CC(C)C1=C2N=C(C=C(N2N=C1)NCC3=CC=CC=C3)NCCCCCCN
How it was run: as §1

[4] = compound: CC1=C(C(CC(=O)N1)C2=CC=C(C=C2)C(F)(F)F)C(=O)NC3=C(C=C4C(=C3)C=NN4)F
How it was run: as §1

[5] = compound: CC1=C(C2=C(C=C1)C(=O)C3=CC=CC=C3N2CCCN)C
How it was run: as §1

[6] = compound: CC1=C(C=C(C=C1)NC(=O)C2=CC(=CC=C2)C(C)(C)C#N)NC3=CC4=C(C=C3)N=CN(C4=O)C
How it was run: as §1

[7] = compound: CC1=C(C=C(C=C1)NC(=O)C2=CC(=CC=C2)N(C)C)NC(=O)C3=CC=C(C=C3)O
How it was run: as §1

[8] = compound: CC1=CC=C(C=C1)SC2=C3C=C(SC3=CN=C2)C(=O)N
How it was run: as §1

vemurafenib = compound: CCCS(=O)(=O)Nc1ccc(F)c(C(=O)c2c[nH]c3ncc(-c4ccc(Cl)cc4)cc23)c1F [vemurafenib]
How it was run: as §1

[9] = compound: CCCS(=O)(=O)Nc1ccc(F)c(C(=O)c2c[nH]c3ncc(Cl)cc23)c1F
How it was run: as §1

barasertib = compound: CCN(CCCOc1ccc2c(Nc3cc(CC(=O)Nc4cccc(F)c4)[nH]n3)ncnc2c1)CCOP(=O)(O)O [barasertib]
How it was run: as §1

[10] = compound: CC[C@@H]1C(=O)N(C)c2cnc(Nc3ccc(C(=O)NC4CCN(C)CC4)cc3OC)nc2N1C1CCCC1
How it was run: as §1

volasertib = compound: CC[C@@H]1C(=O)N(C)c2cnc(Nc3ccc(C(=O)N[C@H]4CC[C@H](N5CCN(CC6CC6)CC5)CC4)cc3OC)nc2N1C(C)C [volasertib]
How it was run: as §1

[11] = compound: CCn1c(C(=O)N(C2CC2)C2CC2)cc2c3c(ncn3C)c(Nc3cc(C)n(C)n3)nc21
How it was run: as §1

[12] = compound: CCn1cc(-c2ccnc3[nH]c(-c4cccc(CN(C)C)c4)cc23)c(-c2ccc(NC(=O)N(C)C)cc2)n1
How it was run: as §1

[13] = compound: CN1CCC(CNc2ccc3ncc(-c4cccc(OC(F)(F)F)c4)n3n2)CC1
How it was run: as §1

saracatinib = compound: CN1CCN(CCOc2cc(OC3CCOCC3)c3c(Nc4c(Cl)ccc5c4OCO5)ncnc3c2)CC1 [saracatinib]
How it was run: as §1

sotrastaurin = compound: CN1CCN(c2nc(C3=C(c4c[nH]c5ccccc45)C(=O)NC3=O)c3ccccc3n2)CC1 [sotrastaurin]
How it was run: as §1

Measured: log2 fold change

ICAM1 (UniProt P05362)
inactive: ibrutinib -0.012 | [1] 0.032 | ralimetinib -0.027 | [2] 0.002 | [3] -0.005 | [4] -0.004 | [5] 0.007 | [6] -0.014 | [7] -0.019 | [8] -0.012 | vemurafenib 0.023 | [9] -0.008 | barasertib 0.126 | [10] 0.072 | volasertib -0.01 | [11] -0.005 | [12] -0.047 | [13] 0.03 | saracatinib -0.032 | sotrastaurin -0.04

IKBKB (UniProt O14920)
inactive: ibrutinib -0.003 | [1] 0.031 | ralimetinib 0.051 | [2] -0.053 | [3] -0.016 | [4] -0.001 | [5] -0.079 | [6] 0.007 | [7] 0.041 | [8] 0.006 | vemurafenib 0.061 | [9] 0.025 | barasertib 0.013 | [10] -0.005 | volasertib -0.038 | [11] 0.047 | [12] 0.06 | [13] -0.052 | saracatinib 0.016 | sotrastaurin 0.019

HTRA2 (UniProt O43464)
inactive: ibrutinib 0.041 | [1] -0.008 | ralimetinib 0.015 | [2] -0.017 | [3] -0.05 | [4] -0.008 | [5] -0.04 | [6] 0.032 | [7] -0.014 | [8] -0.022 | vemurafenib 0.024 | [9] 0.01 | barasertib -0.01 | [10] 0.067 | volasertib 0.002 | [11] -0.009 | [12] -0.05 | [13] 0.047 | saracatinib 0.025 | sotrastaurin 0.004

IMMT (UniProt Q16891)
inactive: ibrutinib -0.015 | [1] 0.006 | ralimetinib -0.018 | [2] -0.045 | [3] -0.017 | [4] -0.007 | [5] 0.038 | [6] 0.003 | [7] 0.011 | [8] 0.031 | vemurafenib -0.016 | [9] -0.006 | barasertib 0.004 | [10] -0.046 | volasertib 0.015 | [11] 0.015 | [12] -0.005 | saracatinib 0.01 | sotrastaurin -0.012
active: [13] -0.212

IGSF3 (UniProt O75054)
inactive: ibrutinib 0.063 | [1] -0.016 | ralimetinib 0.006 | [2] -0.038 | [3] -0.004 | [4] 0.028 | [5] -0.083 | [6] 0.012 | [7] 0 | [8] -0.043 | vemurafenib -0.101 | [9] -0.012 | barasertib 0.056 | [10] 0.056 | volasertib 0.005 | [11] -0.043 | [12] -0.037 | [13] 0.106 | saracatinib -0.07 | sotrastaurin 0.076

HYPK (UniProt Q9NX55)
inactive: ibrutinib 0.12 | [1] -0.013 | ralimetinib -0.001 | [2] -0.041 | [3] -0.016 | [4] 0.009 | [5] -0.019 | [6] -0.013 | [7] -0.034 | [8] -0.005 | vemurafenib -0.022 | [9] -0.036 | barasertib 0.125 | [10] 0.023 | volasertib 0.012 | [11] -0.042 | [12] -0.011 | [13] 0.001 | saracatinib 0.038 | sotrastaurin 0.02

IMP3 (UniProt Q9NV31)
inactive: ibrutinib 0.036 | [1] -0.087 | ralimetinib -0.002 | [2] 0.007 | [3] 0.037 | [4] 0.022 | [5] 0.147 | [6] 0.159 | [7] -0.077 | [8] 0.783 | vemurafenib 0.173 | [9] -0.138 | barasertib -0.015 | [10] 0.194 | volasertib 0.008 | [11] -0.063 | [12] -0.149 | [13] 0.009 | saracatinib 0.056 | sotrastaurin -0.024

IDH1 (UniProt O75874)
inactive: ibrutinib 0.004 | [1] -0.002 | ralimetinib 0.007 | [2] 0.005 | [3] 0.031 | [4] -0.006 | [5] 0.002 | [6] -0.019 | [7] 0.012 | [8] 0.035 | vemurafenib 0.009 | [9] 0.008 | barasertib 0.021 | [10] -0.063 | volasertib -0.067 | [11] 0.023 | [12] -0.08 | [13] -0.005 | saracatinib 0.016 | sotrastaurin -0.026

ILRUN (UniProt Q9H6K1)
inactive: ibrutinib -0.002 | [1] -0.011 | ralimetinib 0.001 | [2] -0.019 | [3] 0.007 | [4] 0.035 | [5] -0.03 | [6] 0.009 | [7] 0.018 | [8] 0.02 | vemurafenib -0.012 | [9] 0.048 | barasertib 0.06 | [10] -0.001 | volasertib -0.058 | [11] -0.059 | [12] -0.109 | [13] 0.067 | saracatinib 0.024 | sotrastaurin -0.003

ING3 (UniProt Q9NXR8)
inactive: ibrutinib -0.013 | [1] -0.03 | ralimetinib 0.029 | [2] -0.002 | [3] 0.071 | [4] -0.032 | [5] -0.047 | [6] 0.042 | [7] 0.015 | [8] 0.069 | vemurafenib -0.022 | [9] -0.143 | barasertib 0.056 | [10] 0.034 | volasertib -0.016 | [11] -0.068 | [12] -0.153 | [13] -0.112 | saracatinib -0.008 | sotrastaurin -0.022

IBTK (UniProt Q9P2D0)
inactive: ibrutinib 0.027 | [1] -0.118 | ralimetinib 0.06 | [2] -0.018 | [3] 0.049 | [4] 0.015 | [5] -0.058 | [6] -0.013 | [7] 0.074 | [8] 0.01 | vemurafenib 0.07 | [9] 0.089 | barasertib -0.029 | [10] 0.015 | volasertib 0.015 | [11] -0.021 | [12] 0.168 | [13] -0.081 | saracatinib 0.021 | sotrastaurin -0.028

IMPDH1 isoform 6 (UniProt P20839)
inactive: ibrutinib -0.007 | [1] 0.009 | ralimetinib 0.034 | [2] -0.007 | [3] 0.01 | [4] -0.039 | [5] 0.033 | [6] 0.014 | [7] -0.005 | [8] -0.004 | vemurafenib -0.006 | [9] -0.015 | barasertib -0.01 | [10] 0.003 | volasertib -0.002 | [11] -0.006 | [12] -0.128 | [13] 0.021 | saracatinib 0.003 | sotrastaurin -0.024

INTS1 (UniProt Q8N201)
inactive: ibrutinib -0.103 | [1] 0.177 | ralimetinib 0.053 | [2] -0.007 | [3] -0.052 | [4] -0.052 | [5] 0.038 | [6] -0.032 | [7] 0.035 | [8] 0.026 | vemurafenib 0.042 | [9] -0.096 | barasertib -0.01 | [10] 0.044 | volasertib -0.033 | [11] 0.007 | [12] 0.06 | [13] -0.041 | saracatinib 0 | sotrastaurin -0.002

IDH3B (UniProt O43837)
inactive: ibrutinib 0.007 | [1] 0.002 | ralimetinib 0.024 | [2] 0.015 | [3] -0.006 | [4] 0.045 | [5] -0.009 | [6] -0.015 | [7] 0.018 | [8] 0.009 | vemurafenib 0.035 | [9] -0.006 | barasertib 0.031 | [10] 0.043 | volasertib -0.004 | [11] -0.012 | [12] -0.026 | [13] 0.003 | saracatinib 0.008 | sotrastaurin -0.01

HSPA9 (UniProt P38646)
inactive: ibrutinib -0.019 | [1] -0.007 | ralimetinib -0.016 | [2] 0.013 | [3] -0.006 | [4] -0.021 | [5] 0.016 | [6] -0.023 | [7] -0.005 | [8] -0.02 | vemurafenib -0.003 | [9] -0.015 | barasertib -0.032 | [10] 0.024 | volasertib 0.004 | [11] 0.008 | [12] 0.021 | [13] -0.014 | saracatinib -0.001 | sotrastaurin 0

HSPD1 (UniProt P10809)
inactive: ibrutinib -0.008 | [1] -0.005 | ralimetinib -0.03 | [2] -0.002 | [3] 0.016 | [4] -0.027 | [5] -0.012 | [6] -0.006 | [7] -0.013 | [8] -0.006 | vemurafenib 0.004 | [9] -0.008 | barasertib -0.021 | [10] 0.03 | volasertib 0.037 | [11] -0.023 | [12] 0.003 | [13] -0.022 | saracatinib 0.002 | sotrastaurin -0.026

2 entries drawn at random from the list so far, as already listed:
IKBKB (UniProt O14920)
inactive: ibrutinib -0.003 | [1] 0.031 | ralimetinib 0.051 | [2] -0.053 | [3] -0.016 | [4] -0.001 | [5] -0.079 | [6] 0.007 | [7] 0.041 | [8] 0.006 | vemurafenib 0.061 | [9] 0.025 | barasertib 0.013 | [10] -0.005 | volasertib -0.038 | [11] 0.047 | [12] 0.06 | [13] -0.052 | saracatinib 0.016 | sotrastaurin 0.019

IMMT (UniProt Q16891)
inactive: ibrutinib -0.015 | [1] 0.006 | ralimetinib -0.018 | [2] -0.045 | [3] -0.017 | [4] -0.007 | [5] 0.038 | [6] 0.003 | [7] 0.011 | [8] 0.031 | vemurafenib -0.016 | [9] -0.006 | barasertib 0.004 | [10] -0.046 | volasertib 0.015 | [11] 0.015 | [12] -0.005 | saracatinib 0.01 | sotrastaurin -0.012
active: [13] -0.212
